# Source: PubChem BioAssay AID1259284 (Sanger Institute, 2017)
# Screen: 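siRNA screen across the kinome seeking partners for BYL719, cetuximab or trametinib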 (primary screen)
# Cells: SW48 human colorectal cancer cells
# Knock-down reagent: siRNA pool against human genes
# Treatment: anchor drug BYL719 at 1 µM, cetuximab at 5 µg/ml or trametinib at 10 nM, or DMSO vehicle alone
# Read-out: 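Viability scaled to non-targeting control pool, robust z-score from controls, and synergy scores for each drug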
# Scale: robust z-score, no drug: higher = more cells survive knock-down
# Rule for the call: 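Called essential when the robust z-score of viability without drug falls below -3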
# Calls: active = essential without drug; inactive = no change without drug
# Shown is a random part of 794 reagents tested. Over the whole deposit, 16 (2%) are marked active. 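Calls concern knock-down without drug only; drug synergy was judged apart, with scores above 0.15 taken as synergy.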 Not all columns of the deposit are shown. No sequences are given here. Not given: the amount of reagent, the time to read-out.
gene,"robust z-score, no drug",outcome
ZC3H11A,0.426,inactive
PSTK,0.426,inactive
RIOK1,-1.3,inactive
SOX9,0.426,inactive
NUAK2,0.426,inactive
LMBR1,0.426,inactive
MAGI2,-0.876,inactive
CPNE3,0.426,inactive
FN3KRP,-1.27,inactive

2 neighbouring entries already listed, for reference:
gene,"robust z-score, no drug",outcome
RIOK1,-1.3,inactive
SOX9,0.426,inactive

The listing continues.
gene,"robust z-score, no drug",outcome
ADCK1,0.426,inactive
MAP4K3,-1.93,inactive
SYK,-1.26,inactive
CRKL,0.426,inactive
ACVR1B,0.109,inactive
BTK,0.426,inactive
STK36,0.426,inactive
PKMYT1,0.426,inactive
TK2,-1.39,inactive
CIB2,0.426,inactive
CUL1,0.426,inactive
